One data set relates to Gram-negative bacteria. Briefly: MIC against Gram-negative bacteria (V681 analog studies). It counts as cell-based. As to the method: (§1) Minimal inhibitory concentrations (MICs) are determined using a standard microtiter dilution method, with 3 sets of determinations, in LB (Luria-Bertani) no-salt medium (10 g of tryptone and 5 g of yeast extract per liter). In some cases, Mueller Hinton (MH) medium or Brain Heart Infusion (BHI) medium is used.
(§2) Briefly, cells were grown overnight at 37° C. in LB and diluted in the same medium. Serial dilutions of the peptides are added to the microtiter plates in a volume of 100 μl followed by 10 μl of bacteria to give a final inoculum of 5×10^5 colony-forming units/ml. Plates are incubated at 37° C. for 24 hours and MICs determined as the lowest peptide concentration that inhibited growth. Alternatively, minimal inhibitory concentrations are determined using a standard microtiter dilution method in a Mueller-Hinton (MH) medium. Briefly, cells are grown overnight at 37° C. in MH broth and diluted in the same medium. In some cases, serial dilutions of the peptides are added to the microtiter plates in a volume of 100 μl followed by 10 μl of bacteria to give a final inoculum of 1×10^5 colony-forming units/ml. Plates are incubated at 37° C. for 24 hours and MICs are determined as the lowest peptide concentration that inhibited growth.

Another data set deals with Pseudomonas aeruginosa. As to conditions: for Therapeutic index HC50/MIC: HC50 over geometric mean MIC; for Therapeutic index HC50/MIC / Therapeutic index Fold (improvement compared to D1): P. aeruginosa.
The next data set has as its system Acinetobacter baumannii. Format: cell-based. As to the method: as §1, §2
The biological activities of these six peptide analogs was determined against 11 clinical isolated of Acinetobacter baumannii (Table 9). Please note that the activities are reported in micromolar rather than microgram/ml. This allows a direct comparison on a molar basis with the effectiveness of molecules of different molecular weights whether peptides disclosed herein or antibiotics which in general are smaller in molecular mass. […] These are the highest antimicrobial activities observed in studies of antimicrobial peptides derived by modifying the peptide sequence of SEQ ID NO:24 (D1). D22 has the best hemolytic activity of the six analogs (D17-D22) and a therapeutic index of […] compared to […] for D1 (Table 9). D22 has no apparent advantage over D1 as determined in these experiments.

Like-named read-outs stand apart in the source and are kept apart here.

`CC[C@@H](C)[C@@H](NC(=O)[C@@H](C)NC(=O)[C@@H](CCCCN)NC(=O)[C@@H](CC(C)C)NC(=O)[C@@H](C)NC(=O)[C@H](NC(=O)[C@@H](Cc1c[nH]cn1)NC(=O)[C@@H](CC(C)C)NC(=O)[C@H](NC(=O)[C@H](NC(=O)[C@@H](CCCCN)NC(=O)[C@@H](CCCCN)NC(=O)[C@@H](C)NC(=O)[C@@H](CO)NC(=O)[C@@H](CCCCN)NC(=O)[C@@H](Cc1ccccc1)NC(=O)[C@H](NC(=O)[C@@H](CCCCN)NC(=O)[C@@H](CC(C)C)NC(=O)[C@@H](Cc1ccccc1)NC(=O)[C@@H](CO)NC(=O)[C@@H](CCCCN)NC(=O)[C@@H](Cc1c[nH]c2ccccc12)NC(=O)[C@@H](CCCCN)NC(C)=O)[C@H](C)O)[C@H](C)O)C(C)C)[C@H](C)O)C(=O)N[C@H](CO)C(=O)N[C@H](CO)C(N)=O` [Peptide D1, Ac-KWKSFLKTFKSAKKTVLHTALKAISS-amide]: in the data set with Gram-negative bacteria, the “Fold increase in therapeutic index against Gram-negative bacteria compared to V681” value is given as 80 fold. Besides, the “Fold improvement in therapeutic index against Pseudomonas aeruginosa strains compared to V681” value with Pseudomonas aeruginosa amounted to 53 fold. In the data set on Pseudomonas aeruginosa (Brain Heart Infusion medium), the “Therapeutic index HC50/MIC” value is recorded as 13.5 and the “Therapeutic index Fold (improvement compared to D1)” value came to 1.00. Further, in the data set on Pseudomonas aeruginosa (Mueller Hinton medium), the “Therapeutic index HC50/MIC” value is listed as 34.0 and the “Therapeutic index Fold (improvement compared to D1)” value turned out to be 1.00. Besides, the “Therapeutic Index HC50/MIC against A. baumannii” value with Acinetobacter baumannii worked out at 128.1. Also, the “Therapeutic index against A. baumannii (printed with μM)” value in the data set with Acinetobacter baumannii (text to Table 9) was 128.1 µM.
Consider `CC[C@H](C)[C@H](NC(=O)[C@H](C)NC(=O)[C@H](CCCCN)NC(=O)[C@H](CC(C)C)NC(=O)[C@H](C)NC(=O)[C@@H](NC(=O)[C@H](Cc1c[nH]cn1)NC(=O)[C@H](CC(C)C)NC(=O)[C@@H](NC(=O)[C@@H](NC(=O)[C@H](CCCCN)NC(=O)[C@H](CCCCN)NC(=O)[C@H](C)NC(=O)[C@H](CO)NC(=O)[C@H](CCCCN)NC(=O)[C@H](Cc1ccccc1)NC(=O)[C@@H](NC(=O)[C@H](CCCCN)NC(=O)[C@H](CC(C)C)NC(=O)[C@H](Cc1ccccc1)NC(=O)[C@H](CO)NC(=O)[C@H](CCCCN)NC(=O)[C@H](Cc1c[nH]c2ccccc12)NC(=O)[C@H](CCCCN)NC(C)=O)[C@@H](C)O)[C@@H](C)O)C(C)C)[C@@H](C)O)C(=O)N[C@@H](CO)C(=O)N[C@@H](CO)C(N)=O` [NKL], for which the “Fold increase in therapeutic index against Gram-negative bacteria compared to V681” value in the data set with Gram-negative bacteria turned out to be 90 fold.

(Values after US9352015B2, “Antimicrobial peptides” (priority 2009, dated 2016).)
